From PMC11061751
No constants are given. Whether binding was seen depends on the method and setting. In cells and extracts the contact can be indirect. Some binding calls cover weakened binding; strength is not graded here.

The chains behind the UniProt entries cited, without tags or fusion partners.
UniProt O60260: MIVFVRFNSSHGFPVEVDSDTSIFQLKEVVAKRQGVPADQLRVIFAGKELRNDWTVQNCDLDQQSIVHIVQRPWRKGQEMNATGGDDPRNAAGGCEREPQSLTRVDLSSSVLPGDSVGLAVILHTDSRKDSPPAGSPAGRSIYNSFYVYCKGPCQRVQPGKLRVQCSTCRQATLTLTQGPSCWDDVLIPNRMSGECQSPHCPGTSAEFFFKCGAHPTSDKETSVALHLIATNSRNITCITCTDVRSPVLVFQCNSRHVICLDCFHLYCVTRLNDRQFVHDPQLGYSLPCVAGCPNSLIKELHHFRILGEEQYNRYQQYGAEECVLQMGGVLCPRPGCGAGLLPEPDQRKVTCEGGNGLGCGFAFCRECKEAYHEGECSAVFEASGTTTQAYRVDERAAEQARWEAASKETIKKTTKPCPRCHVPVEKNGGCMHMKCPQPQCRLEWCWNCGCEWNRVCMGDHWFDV
UniProt Q86U44: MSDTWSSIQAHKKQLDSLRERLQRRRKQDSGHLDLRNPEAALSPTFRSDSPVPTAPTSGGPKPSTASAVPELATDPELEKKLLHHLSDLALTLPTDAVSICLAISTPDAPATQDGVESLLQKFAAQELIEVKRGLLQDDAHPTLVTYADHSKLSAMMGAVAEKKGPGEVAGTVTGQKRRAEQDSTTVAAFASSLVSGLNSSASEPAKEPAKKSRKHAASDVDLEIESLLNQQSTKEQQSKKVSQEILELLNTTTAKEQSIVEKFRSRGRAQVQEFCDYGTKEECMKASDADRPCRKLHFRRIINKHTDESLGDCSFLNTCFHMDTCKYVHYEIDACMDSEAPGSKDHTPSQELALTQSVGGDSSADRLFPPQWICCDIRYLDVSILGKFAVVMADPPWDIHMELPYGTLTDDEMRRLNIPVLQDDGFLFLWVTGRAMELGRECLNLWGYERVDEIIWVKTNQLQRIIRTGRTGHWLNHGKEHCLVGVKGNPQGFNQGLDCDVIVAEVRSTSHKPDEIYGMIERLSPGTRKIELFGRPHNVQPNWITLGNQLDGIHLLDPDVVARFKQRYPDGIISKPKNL

Target: Flag-PRKN (UniProt O60260)
Assay: co-IP; HEK293 cells transfected with Flag-PRKN and Myc-METTL3 for 48 h; lysates in IP lysis buffer (10 mM Tris, 1% NP-40, 2 mM EDTA, 150 mM NaCl, pH 7.5) immunoprecipitated with anti-Flag (IgG as control), 4 °C overnight, protein A/G beads; Western blotting

How did the binding turn out when “Myc-METTL3 (from UniProt Q86U44 1-580) (enzyme)” was run?
Its binding is “binds”.
